{"source": "paper PMC6747087", "about": "“Characterization of Tachyplesin Peptides and Their Cyclized Analogues to Improve Antimicrobial and Anticancer Properties” (International Journal of Molecular Sciences, 2019)", "key": {"[1]": {"test": "Trp fluorescence emission shift upon titration with LUVs", "format": "binding", "conditions": "12.5 µM peptide"}, "[2]": {"test": "Trp fluorescence emission shift upon titration with LUVs", "format": "binding", "conditions": "12.5 µM peptide", "remark": "listed apart in the source"}}, "note": "Residues, ends and D or L forms follow the SMILES beside them."}
{"compound": "CC[C@H](C)[C@@H]1NC(=O)CNC(=O)[C@H](CCCNC(=N)N)NC(=O)[C@H](Cc2ccc(O)cc2)NC(=O)[C@@H]2CSSC[C@H](NC1=O)C(=O)N[C@@H](Cc1ccc(O)cc1)C(=O)N[C@@H](CCCNC(=N)N)C(=O)N[C@@H](CCCCN)C(=O)N[C@H](C(=O)N[C@@H](CCCNC(=N)N)C(N)=O)CSSC[C@H](NC(=O)[C@H](Cc1c[nH]c3ccccc13)NC(=O)[C@@H](N)CCCCN)C(=O)N[C@@H](Cc1ccccc1)C(=O)N[C@@H](CCCNC(=N)N)C(=O)N[C@@H](C(C)C)C(=O)N2", "note": "[TIII, Tachyplesin III] (HELM PEPTIDE1{K.W.C.F.R.V.C.Y.R.G.I.C.Y.R.K.C.R.[am]}$PEPTIDE1,PEPTIDE1,3:R3-16:R3|PEPTIDE1,PEPTIDE1,7:R3-12:R3$$$V2.0; N-terminus assumed)", "values": [{"measurement": "shift in fluorescence emission maximum wavelength (blue shift)", "setting": "[1]; 1 mM POPC/POPS (4:1) LUVs", "value": 18, "unit": "nm"}, {"measurement": "0.5 [L] (lipid concentration required to achieve half of the maximum blue shift)", "setting": "[1]; POPC/POPS (4:1) LUVs", "value": 0.30, "unit": "mM"}, {"measurement": "shift in fluorescence emission maximum wavelength (blue shift)", "setting": "[2]; 1 mM POPC/POPG (4:1) LUVs", "value": 23, "unit": "nm"}, {"measurement": "0.5 [L] (lipid concentration required to achieve half of the maximum blue shift)", "setting": "[2]; POPC/POPG (4:1) LUVs", "value": 0.10, "unit": "mM"}]}
